Measured values taken from article PMC4478011.
No constants are given. Whether binding was seen depends on the method and setting. In cells and extracts the contact can be indirect. Some binding calls cover weakened binding; strength is not graded here. For part of these data: Where a sequence is shown, tags or fusion partners need not be part of it.

Sequences of proteins named here, by UniProt entry; tags and fusion partners are left off. A change or cut given only in a name is not applied to a line headed by its entry.
UniProt P06213: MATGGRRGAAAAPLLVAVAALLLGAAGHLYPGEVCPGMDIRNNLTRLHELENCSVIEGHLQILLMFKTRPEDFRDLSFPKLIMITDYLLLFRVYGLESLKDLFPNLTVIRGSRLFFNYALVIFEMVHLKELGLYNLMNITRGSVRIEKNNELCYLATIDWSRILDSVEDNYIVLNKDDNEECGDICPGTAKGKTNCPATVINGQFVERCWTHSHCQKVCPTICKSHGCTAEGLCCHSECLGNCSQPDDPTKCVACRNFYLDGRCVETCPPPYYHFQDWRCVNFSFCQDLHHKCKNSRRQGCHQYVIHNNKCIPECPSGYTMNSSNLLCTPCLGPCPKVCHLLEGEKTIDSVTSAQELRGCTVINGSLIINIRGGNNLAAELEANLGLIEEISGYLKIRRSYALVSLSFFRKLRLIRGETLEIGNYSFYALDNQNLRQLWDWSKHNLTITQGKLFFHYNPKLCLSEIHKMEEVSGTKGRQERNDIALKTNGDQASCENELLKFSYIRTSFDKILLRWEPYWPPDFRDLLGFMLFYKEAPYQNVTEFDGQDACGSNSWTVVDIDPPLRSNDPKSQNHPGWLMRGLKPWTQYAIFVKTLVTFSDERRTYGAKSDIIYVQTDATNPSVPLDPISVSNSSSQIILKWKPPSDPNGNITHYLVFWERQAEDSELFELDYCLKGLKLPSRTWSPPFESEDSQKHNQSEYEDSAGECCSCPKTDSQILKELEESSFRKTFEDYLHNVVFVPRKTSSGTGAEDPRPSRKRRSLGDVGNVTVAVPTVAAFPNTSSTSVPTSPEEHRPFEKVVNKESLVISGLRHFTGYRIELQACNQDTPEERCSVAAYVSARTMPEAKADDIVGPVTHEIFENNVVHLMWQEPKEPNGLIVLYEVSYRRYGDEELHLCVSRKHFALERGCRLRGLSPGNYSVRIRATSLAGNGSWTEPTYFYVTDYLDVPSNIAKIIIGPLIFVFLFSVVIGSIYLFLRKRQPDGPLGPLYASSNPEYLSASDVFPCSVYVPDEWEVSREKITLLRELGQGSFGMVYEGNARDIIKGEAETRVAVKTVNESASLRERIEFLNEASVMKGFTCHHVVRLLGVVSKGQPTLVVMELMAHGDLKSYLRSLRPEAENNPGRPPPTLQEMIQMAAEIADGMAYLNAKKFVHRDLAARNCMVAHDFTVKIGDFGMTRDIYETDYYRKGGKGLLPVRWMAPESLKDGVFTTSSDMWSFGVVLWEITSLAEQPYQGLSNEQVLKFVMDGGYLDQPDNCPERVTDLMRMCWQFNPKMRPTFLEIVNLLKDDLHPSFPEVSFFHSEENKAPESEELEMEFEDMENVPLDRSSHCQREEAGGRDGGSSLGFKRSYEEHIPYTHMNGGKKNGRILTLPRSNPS
UniProt P15208: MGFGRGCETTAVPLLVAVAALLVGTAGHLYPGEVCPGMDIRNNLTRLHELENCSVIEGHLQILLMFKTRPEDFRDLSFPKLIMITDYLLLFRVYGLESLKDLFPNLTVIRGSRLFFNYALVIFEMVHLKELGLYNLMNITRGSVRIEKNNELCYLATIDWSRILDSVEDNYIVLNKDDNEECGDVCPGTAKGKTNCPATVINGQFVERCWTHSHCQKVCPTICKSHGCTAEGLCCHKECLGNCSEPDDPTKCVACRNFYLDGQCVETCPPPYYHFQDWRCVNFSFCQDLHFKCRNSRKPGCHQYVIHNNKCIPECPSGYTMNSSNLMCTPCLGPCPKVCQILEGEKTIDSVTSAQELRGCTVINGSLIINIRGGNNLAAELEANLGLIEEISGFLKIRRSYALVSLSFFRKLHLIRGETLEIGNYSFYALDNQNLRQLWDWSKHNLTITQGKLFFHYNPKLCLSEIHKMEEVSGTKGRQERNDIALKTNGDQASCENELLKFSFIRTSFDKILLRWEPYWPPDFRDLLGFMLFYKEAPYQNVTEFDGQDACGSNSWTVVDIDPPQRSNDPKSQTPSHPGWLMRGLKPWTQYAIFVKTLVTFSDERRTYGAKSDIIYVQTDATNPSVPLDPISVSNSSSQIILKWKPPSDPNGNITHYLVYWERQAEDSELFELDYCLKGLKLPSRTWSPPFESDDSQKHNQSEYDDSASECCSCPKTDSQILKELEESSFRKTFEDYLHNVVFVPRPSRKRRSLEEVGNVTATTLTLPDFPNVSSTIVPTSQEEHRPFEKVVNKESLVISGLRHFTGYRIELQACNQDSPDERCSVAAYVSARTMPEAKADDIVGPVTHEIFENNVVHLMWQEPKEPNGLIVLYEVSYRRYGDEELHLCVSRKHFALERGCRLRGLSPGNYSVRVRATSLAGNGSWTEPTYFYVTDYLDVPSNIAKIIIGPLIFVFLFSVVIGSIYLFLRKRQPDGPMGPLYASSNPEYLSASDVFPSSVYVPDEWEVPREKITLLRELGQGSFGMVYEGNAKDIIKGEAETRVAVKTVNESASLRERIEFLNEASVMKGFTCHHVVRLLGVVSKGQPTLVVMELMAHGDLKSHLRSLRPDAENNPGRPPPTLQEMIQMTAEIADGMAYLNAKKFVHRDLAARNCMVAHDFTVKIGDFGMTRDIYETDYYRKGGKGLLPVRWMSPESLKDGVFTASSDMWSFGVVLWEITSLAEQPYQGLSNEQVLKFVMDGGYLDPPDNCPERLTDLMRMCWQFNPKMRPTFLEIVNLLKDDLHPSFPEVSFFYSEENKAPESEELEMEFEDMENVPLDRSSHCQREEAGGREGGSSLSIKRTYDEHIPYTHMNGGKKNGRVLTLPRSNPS

Columns and labels:
GFP-tagged BBS17 [1] = target: T1, GFP-tagged BBS17 (UniProt Q9NQ48); test: co-IP; lysates of HEK293T cells expressing GFP- or Flag-tagged BBS17; precipitation with IR antibody (endogenous IR) or by the tagged BBS17; IR detected by its β subunit
T1 sequence: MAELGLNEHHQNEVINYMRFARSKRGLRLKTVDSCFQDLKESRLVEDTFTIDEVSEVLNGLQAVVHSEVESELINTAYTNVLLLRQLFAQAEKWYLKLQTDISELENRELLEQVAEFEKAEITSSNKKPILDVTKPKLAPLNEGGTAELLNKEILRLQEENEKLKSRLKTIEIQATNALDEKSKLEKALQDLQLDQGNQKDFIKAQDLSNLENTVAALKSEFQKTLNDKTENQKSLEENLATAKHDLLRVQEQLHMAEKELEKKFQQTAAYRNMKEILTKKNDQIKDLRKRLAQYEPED

Flag-tagged BBS17 = target: T2, Flag-tagged BBS17 (UniProt Q9NQ48); test: as above
T2 sequence: T1 sequence

GFP-tagged BBS17 [2] = target: T1, GFP-tagged BBS17; test: condition: only shRNA-mediated reduction in the expression of BBS1; co-IP; lysates of HEK293T cells with GFP-BBS17 and shRNA against Bbs1; GFP-BBS17 used to precipitate IR; IRβ blotted
[3] = target: insulin receptor (endogenous, HEK293T cells) (human (endogenous in HEK293T)) (UniProt P06213); test: co-IP; lysates of HEK293T cells expressing GFP- or Flag-tagged BBS17; precipitation with IR antibody (endogenous IR) or by the tagged BBS17; IR detected by its β subunit
[4] = target: insulin receptor (endogenous, mouse brain) (mouse (endogenous in mouse brain)) (UniProt P15208); test: co-IP; mouse brain lysates; endogenous IR (β subunit) used to pull down endogenous BBS17

## insulin receptor (endogenous, HEK293T cells) (from UniProt P06213 28-758; P06213 763-1382)
GFP-tagged BBS17 [1]
  binding: binds
Flag-tagged BBS17
  binding: binds
GFP-tagged BBS17 [2]
  binding: no binding

B1: GFP-tagged BBS17 (protein, UniProt Q9NQ48 1-299)
chain: T1 sequence
[3]
  binding: binds

B2: Flag-tagged BBS17 (protein, UniProt Q9NQ48 1-299)
chain: T1 sequence
[3]
  binding: binds

B3: BBS17 (endogenous, mouse brain) (protein, UniProt Q9JHQ5 1-299)
chain: MAELGLNEHHQNEVINYMRFARSKRGLRLKTVDSCFQDLKDSRLVEETFTIDEVSEVLNGLQAVVHSEVESELINTAYTNVLLLRQLFSQAEKWYLKLQTDISELENRELLEQVAEFEKAEFVSSSKKPIIDITKPKLVPINEGGTTELLNKEILRLQQENEKLKSRLKTIEIQAVNALDEKSKLERVLQDLQLDQENQQDLLKAQDLDDLENTVATLRSEFQKTLNDKTENQKSLEENLAAAKHDLLRVQEQLSMAEKELEKKFQQTAAYRNMKEILTKKNDQIKDLRKRLAKYESED
[4]
  binding: binds
